Holding throughout (assay): pull-down; protein-A affinity pull-down from extracts of Fc, Fc-Angptl3, Fc-Angptl4 and Fc-Angptl8 McA cells, 4 °C for ~12 h; lysis buffer 150 mM NaCl, 50 mM Tris pH 7.5, 1% IGEPAL CA-630; Western with anti-SmarcAL1 and anti-Fc
In one assay the target is T1, Fc-Angptl4 (human) (UniProt Q9BY76).
T1 sequence: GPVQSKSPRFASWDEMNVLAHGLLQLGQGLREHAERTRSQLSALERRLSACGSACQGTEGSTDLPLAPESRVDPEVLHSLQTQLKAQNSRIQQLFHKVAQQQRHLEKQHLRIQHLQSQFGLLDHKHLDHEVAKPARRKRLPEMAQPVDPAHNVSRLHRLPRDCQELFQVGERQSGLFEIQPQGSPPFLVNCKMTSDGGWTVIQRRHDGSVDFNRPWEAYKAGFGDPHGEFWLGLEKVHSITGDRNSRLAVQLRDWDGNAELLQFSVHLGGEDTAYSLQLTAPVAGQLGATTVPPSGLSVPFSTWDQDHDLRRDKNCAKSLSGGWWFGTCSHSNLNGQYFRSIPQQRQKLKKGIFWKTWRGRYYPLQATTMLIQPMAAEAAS

Another assay has as its target T2, Fc-Angptl8 (human) (UniProt Q6UXH0).
T2 sequence: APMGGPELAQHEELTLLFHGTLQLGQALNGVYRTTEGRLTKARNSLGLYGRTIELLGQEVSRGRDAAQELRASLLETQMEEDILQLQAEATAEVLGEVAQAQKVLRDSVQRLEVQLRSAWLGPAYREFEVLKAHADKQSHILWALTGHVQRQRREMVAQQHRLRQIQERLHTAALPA

Assay [1] deals with T3, Fc-tagged human Angptl3 (human) (UniProt Q9Y5C1).
T3 sequence: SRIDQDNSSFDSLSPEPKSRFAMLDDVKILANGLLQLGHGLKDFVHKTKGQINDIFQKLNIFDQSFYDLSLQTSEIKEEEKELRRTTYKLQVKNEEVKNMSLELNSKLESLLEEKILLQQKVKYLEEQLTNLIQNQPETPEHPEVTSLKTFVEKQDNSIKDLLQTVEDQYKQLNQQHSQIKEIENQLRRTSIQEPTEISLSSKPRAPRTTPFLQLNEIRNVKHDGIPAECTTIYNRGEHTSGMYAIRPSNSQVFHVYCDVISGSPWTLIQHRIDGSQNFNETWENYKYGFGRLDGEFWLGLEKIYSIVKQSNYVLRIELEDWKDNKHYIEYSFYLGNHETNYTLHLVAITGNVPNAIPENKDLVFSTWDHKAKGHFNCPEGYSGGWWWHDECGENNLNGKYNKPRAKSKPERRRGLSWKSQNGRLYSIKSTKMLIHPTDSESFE

No constants are given. Whether binding was seen depends on the method and setting. In cells and extracts the contact can be indirect. Some binding calls cover weakened binding; strength is not graded here. Sequences can lack the tags named with a protein.

B1: SmarcAL1 (SWI/SNF-related matrix-associated actin-dependent regulator of chromatin subfamily A-like protein 1) (protein, UniProt B4F769 1-910)
chain: MSLPLTEEQRKKIEENRQKALARRAEKLWAEQPQSTASGSSAARPSQCKQNSLLNLPAEPSKPEGHATISKGQNLNNSLPAAQRPHSSPCFQPSTAEEAKGLWKSEGKMSAACPNPSPPEVSNQQLLGSKSSEGHPQATQDTAASCPRPFPRDPKLEAKAGRPSTSGQSISDTFYALGEKTPKTDGRPAKALQTSPQKASCLRGMCLRTGDRFRVKIGYNKELIEVFKSLPSRRYDSFTKTWDFSMSDYRALMKAVERLSTVSLQPLEEVDGTGGQTSLPSAPSLTFVTGRCMLISRARFEVDIGYSEVVIALFKQMESRNYDPKTRKWNFLLEEHNKLIARSRELKQVQLDPLPKTLTLAFASQLEKTSLQSKADVPEADLSGVDAKLVSNLMPFQREGVSFAISKRGRLLLADDMGLGKTIQAICIAAFYRKEWPLLVVVPSSVRFTWEQAFLRWLPSLSPEDINVVVTGKGRLTAGLVNIVSFDLLSKLEKQLKTPFKVVIIDESHFLKNIKTARCRAAVPILKVAKRVILLSGTPAMSRPAELYTQIIAVKPTFFPQFHAFGLRYCDAKRLPWGWDYSGSSNLGELKLLLEEAVMLRRLKSDVLSQLPAKQRKMVVVNPGRISTRAKAALDAAAKEMTKDKTKQQQKEALLVFFNRTAEAKIPCVIEYILDLLESGREKFLVFAHHKVLLDAIAKELERKNVQHIRIDGSTPSADREDLCQQFQLSKGHTVAVLSITAANMGLTFSSADLVVFAELFWNPGVLIQAEDRVHRIGQTNSVGIHYLVAKGTADDYLWPLIQEKIKVLGEAGLSETNFSEMTEATDYLYKDPKQKTIYSLFQQSFEDDGNDMEFLEAAESFELGSTSGTSGNSSQELGDITDENALADSPPKKRRFEFFDNWDSFTSPF
In the case of B1, the binding result in the assay with Fc-Angptl4 (human) was “no binding”; with Fc-Angptl8 (human), “no binding”; in assay [1], “binds”.

For the origin of these results see publication PMC10739977.
